{"source": "PubChem BioAssay AID1224830 (NIAID, 2016)", "test": "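Regulators of TLR4 signalling towards TNF-alpha in macrophage-like cells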 (primary screen)", "cell system": "human THP-1 monocytic leukaemia cells, TNF dual-luciferase reporter clone, PMA-differentiated to macrophage-like cells", "reagent": "siRNA pool against human genes, 50 nM", "time to read-out": "LPS for 4 h, given about 3 days after siRNA transfection", "conditions": "bacterial LPS (TLR4 ligand), 10 ng/ml", "detection": "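TNF firefly reporter luminescence divided by renilla, normalised to the plate median, then turned into a robust z-score for each replicate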", "direction": "TNF reporter robust z-score: higher = stronger TNF reporter response to LPS", "hit rule": "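a well is active when its z-score exceeds 2.8 or falls below -1.5; control wells carry no call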", "note": "In all, the deposit lists about 18,000 reagents; this is a random part of them. Over the whole deposit, about 2,900 (16%) got an active call. 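Calls are made per well; low scores hint the gene aids the LPS response, high scores that it dampens it.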 Repeated entries: four replicate wells of each siRNA pool."}
{"gene":"CCKAR (cholecystokinin A receptor)","TNF reporter robust z-score":-0.39,"activity call":"inactive"}
{"gene":"CCKAR (cholecystokinin A receptor)","TNF reporter robust z-score":0.76,"activity call":"inactive"}
{"gene":"CCKAR (cholecystokinin A receptor)","TNF reporter robust z-score":0,"activity call":"inactive"}
{"gene":"CCKAR (cholecystokinin A receptor)","TNF reporter robust z-score":0.73,"activity call":"inactive"}
{"gene":"ERI3 (ERI1 exoribonuclease family member 3)","TNF reporter robust z-score":-0.99,"activity call":"inactive"}
{"gene":"ERI3 (ERI1 exoribonuclease family member 3)","TNF reporter robust z-score":-0.95,"activity call":"inactive"}
{"gene":"ERI3 (ERI1 exoribonuclease family member 3)","TNF reporter robust z-score":-0.54,"activity call":"inactive"}
{"gene":"ERI3 (ERI1 exoribonuclease family member 3)","TNF reporter robust z-score":-0.83,"activity call":"inactive"}
{"gene":"FCHO1 (FCH and mu domain containing endocytic adaptor 1)","TNF reporter robust z-score":-0.62,"activity call":"inactive"}
{"gene":"FCHO1 (FCH and mu domain containing endocytic adaptor 1)","TNF reporter robust z-score":0.62,"activity call":"inactive"}
{"gene":"FCHO1 (FCH and mu domain containing endocytic adaptor 1)","TNF reporter robust z-score":-0.4,"activity call":"inactive"}
{"gene":"FCHO1 (FCH and mu domain containing endocytic adaptor 1)","TNF reporter robust z-score":-0.38,"activity call":"inactive"}
{"gene":"HHLA2 (HHLA2 member of B7 family)","TNF reporter robust z-score":-0.07,"activity call":"inactive"}
{"gene":"HHLA2 (HHLA2 member of B7 family)","TNF reporter robust z-score":0.23,"activity call":"inactive"}
{"gene":"HHLA2 (HHLA2 member of B7 family)","TNF reporter robust z-score":0.16,"activity call":"inactive"}
{"gene":"HHLA2 (HHLA2 member of B7 family)","TNF reporter robust z-score":0.18,"activity call":"inactive"}
{"gene":"BIN1 (bridging integrator 1)","TNF reporter robust z-score":-0.17,"activity call":"inactive"}
{"gene":"BIN1 (bridging integrator 1)","TNF reporter robust z-score":0.16,"activity call":"inactive"}
{"gene":"BIN1 (bridging integrator 1)","TNF reporter robust z-score":-0.83,"activity call":"inactive"}
{"gene":"BIN1 (bridging integrator 1)","TNF reporter robust z-score":-0.99,"activity call":"inactive"}
{"gene":"CDKL5 (cyclin dependent kinase like 5)","TNF reporter robust z-score":0.51,"activity call":"inactive"}
{"gene":"CDKL5 (cyclin dependent kinase like 5)","TNF reporter robust z-score":-0.63,"activity call":"inactive"}
{"gene":"CDKL5 (cyclin dependent kinase like 5)","TNF reporter robust z-score":0.11,"activity call":"inactive"}
{"gene":"CDKL5 (cyclin dependent kinase like 5)","TNF reporter robust z-score":-1.38,"activity call":"inactive"}
{"gene":"CLEC9A (C-type lectin domain containing 9A)","TNF reporter robust z-score":-0.24,"activity call":"inactive"}
{"gene":"CLEC9A (C-type lectin domain containing 9A)","TNF reporter robust z-score":-0.23,"activity call":"inactive"}
{"gene":"CLEC9A (C-type lectin domain containing 9A)","TNF reporter robust z-score":-0.32,"activity call":"inactive"}
{"gene":"CLEC9A (C-type lectin domain containing 9A)","TNF reporter robust z-score":0.61,"activity call":"inactive"}
{"gene":"DHPS (deoxyhypusine synthase)","TNF reporter robust z-score":1.43,"activity call":"inactive"}
{"gene":"DHPS (deoxyhypusine synthase)","TNF reporter robust z-score":3.06,"activity call":"active"}
{"gene":"DHPS (deoxyhypusine synthase)","TNF reporter robust z-score":2.03,"activity call":"inactive"}
{"gene":"DHPS (deoxyhypusine synthase)","TNF reporter robust z-score":2.07,"activity call":"inactive"}
{"gene":"HES7 (hes family bHLH transcription factor 7)","TNF reporter robust z-score":-0.04,"activity call":"inactive"}
{"gene":"HES7 (hes family bHLH transcription factor 7)","TNF reporter robust z-score":0.41,"activity call":"inactive"}
{"gene":"HES7 (hes family bHLH transcription factor 7)","TNF reporter robust z-score":0.42,"activity call":"inactive"}
{"gene":"HES7 (hes family bHLH transcription factor 7)","TNF reporter robust z-score":0.07,"activity call":"inactive"}
{"gene":"PACSIN3 (protein kinase C and casein kinase substrate in neurons 3)","TNF reporter robust z-score":-1.13,"activity call":"inactive"}
{"gene":"PACSIN3 (protein kinase C and casein kinase substrate in neurons 3)","TNF reporter robust z-score":-0.54,"activity call":"inactive"}
{"gene":"PACSIN3 (protein kinase C and casein kinase substrate in neurons 3)","TNF reporter robust z-score":-0.58,"activity call":"inactive"}
{"gene":"PACSIN3 (protein kinase C and casein kinase substrate in neurons 3)","TNF reporter robust z-score":-0.45,"activity call":"inactive"}

Reagents listed above marked active (1):
{"gene":"DHPS (deoxyhypusine synthase)","TNF reporter robust z-score":3.06,"activity call":"active"}

The list goes on.
{"gene":"DYNC2H1 (dynein cytoplasmic 2 heavy chain 1)","TNF reporter robust z-score":-1.12,"activity call":"inactive"}
{"gene":"DYNC2H1 (dynein cytoplasmic 2 heavy chain 1)","TNF reporter robust z-score":0.33,"activity call":"inactive"}
{"gene":"DYNC2H1 (dynein cytoplasmic 2 heavy chain 1)","TNF reporter robust z-score":-0.37,"activity call":"inactive"}
{"gene":"DYNC2H1 (dynein cytoplasmic 2 heavy chain 1)","TNF reporter robust z-score":-0.73,"activity call":"inactive"}
{"gene":"MS4A10 (membrane spanning 4-domains A10)","TNF reporter robust z-score":-0.76,"activity call":"inactive"}
{"gene":"MS4A10 (membrane spanning 4-domains A10)","TNF reporter robust z-score":-0.01,"activity call":"inactive"}
{"gene":"MS4A10 (membrane spanning 4-domains A10)","TNF reporter robust z-score":-0.44,"activity call":"inactive"}
{"gene":"MS4A10 (membrane spanning 4-domains A10)","TNF reporter robust z-score":-0.11,"activity call":"inactive"}
{"gene":"MAGI2","TNF reporter robust z-score":-0.13,"activity call":"inactive"}
{"gene":"MAGI2","TNF reporter robust z-score":0.28,"activity call":"inactive"}
{"gene":"MAGI2","TNF reporter robust z-score":-0.39,"activity call":"inactive"}
{"gene":"MAGI2","TNF reporter robust z-score":0.32,"activity call":"inactive"}
{"gene":"GRAP2 (GRB2 related adaptor protein 2)","activity call":"inactive"}
{"gene":"GRAP2 (GRB2 related adaptor protein 2)","TNF reporter robust z-score":0.07,"activity call":"inactive"}
{"gene":"GRAP2 (GRB2 related adaptor protein 2)","TNF reporter robust z-score":-0.32,"activity call":"inactive"}
{"gene":"GRAP2 (GRB2 related adaptor protein 2)","TNF reporter robust z-score":-0.23,"activity call":"inactive"}
{"gene":"PLGLB1 (plasminogen like B1)","TNF reporter robust z-score":-0.39,"activity call":"inactive"}
{"gene":"PLGLB1 (plasminogen like B1)","TNF reporter robust z-score":0.24,"activity call":"inactive"}
{"gene":"PLGLB1 (plasminogen like B1)","TNF reporter robust z-score":-0.41,"activity call":"inactive"}
{"gene":"PLGLB1 (plasminogen like B1)","TNF reporter robust z-score":0.54,"activity call":"inactive"}
